According to PubChem BioAssay AID504444 (National Center for Advancing Translational Sciences (NCATS), 2011):
“And” between values parts separate entries of the source, which are not always exact repeats. Identical values can stand only once. About 7,500 (2.1%) of roughly 360,000 compounds were called active. Inconclusive means that the source gave no clear call. Such entries were picked first, then a sample of the others. Calls come from the whole dose curve; as a rule, active = well fitted inhibition curve with a large enough effect; inconclusive = small, poorly fitted or top-dose-only effect, or effect the other way; inactive = flat fitted curve, though single readings scatter. A potency beside an inconclusive call is a rough fit, not a confirmed value.

Test: Nrf2 qHTS screen for inhibitors; note: nearly all actives have a fitted effect of over 60% in size
Details: A549 ARE-Fluc reporter, luciferase luminescence, 18-24 h; series mostly up to 46 µM
Summary of the method: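 Nrf2 activity is the BugLite luminescence, read 15 min after reagent at room temperature, following CellTiter-Fluor cytotoxicity readout (30 min, 37C). Compound titrations were applied for 18-24 h to 5000 A549 ARE_Fluc cells/well in 5% FBS OPTI-MEM.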
Potency is the fitted concentration of half-maximal effect.

SMILES | Potency
CCOc1ccc(-c2cnc3ccccc3n2)cc1 | inconclusive: 6.51 µM [activator, partial curve, poor fit]
Cc1cc(=O)[nH]c(/N=C(\N)Nc2ccc3c(c2)OCCO3)n1 | inconclusive: 32.6 µM [falling, partial curve, poor fit]
CC(=O)CSc1nc2ccccc2s1 | inconclusive: 18.4 µM [activator, single point]
COc1cc2nc(SCc3c(C)noc3C)n(CCC3=CCCCC3)c(=O)c2cc1OC | inconclusive: 18.4 µM [falling, single point]
COc1cc2c(cc1OC)C(c1ccc(N(C)C)cc1)CC(=O)N2 (configuration not stated) | inconclusive: 2.31 µM [falling, full curve]
COc1ccc(NCc2nc3ccccc3n2CCOc2ccccc2)cc1 | inactive
O=C(Nc1nccs1)C1Cc2ccccc2CN1S(=O)(=O)c1ccc(F)cc1 (configuration not stated) | inconclusive: 23.1 µM [activator, single point]
O=c1c2nccnc2[nH]c(=S)n1Cc1ccccc1Cl | inconclusive: 20.6 µM [falling, partial curve, poor fit]
COc1ccc(C(=O)N/C(=C\c2cn(C)c3ccccc23)C(=O)NCCCn2ccnc2)cc1 | inconclusive: 29.1 µM [activator, single point]
Cc1ccc(-c2nn(CC(=O)NCc3ccco3)c(=O)c3ccccc23)cc1 | inconclusive: 29.1 µM [falling, single point]
CN1CCN(C(=O)C2=C[C@H](c3csc4ccccc34)C[C@H](OCc3ccc(CO)cc3)O2)CC1 | inactive
Nc1c(N=Nc2ccccc2F)c(=O)[nH]n1-c1ccccc1 | inconclusive: 10.3 µM [activator, partial curve]
CCCCNS(=O)(=O)c1ccc(NC(=O)Cc2ccc(OC)cc2)cc1 | inconclusive: 10.3 µM [falling, partial curve]
CCOC(=O)c1cnn(-c2ccc(NS(=O)(=O)c3ccc(Cl)cc3)cc2)c1C(F)(F)F | inactive
CCc1ccc(CNC(=O)CN(c2ccc(C)cc2)S(=O)(=O)N(C)C)cc1 | inactive
COc1ccc(CC(=O)N2CCC(c3ccccc3)C2)cc1 (configuration not stated) | inconclusive: 20.6 µM [activator, single point]
COc1ccc(OC)c(CCNC(=O)C2CCN(c3ncnc4c3nc3n4CCCCC3)CC2)c1 | inconclusive: 23.1 µM [falling, single point]
CC(C)c1nc(SCC(=O)N2CC(=O)Nc3ccccc32)c2ccccc2n1 | inconclusive: 14.6 µM [falling, partial curve]
CCOC(=O)c1c(NC(=O)CSc2n[nH]c(-c3ccco3)n2)sc(C)c1C | inconclusive: 9.2 µM [falling, partial curve, poor fit]
CCC(C)N1C(=O)CCC1C(=O)NCc1ccc2c(c1)OCO2 (configuration not stated) | inconclusive: 6.51 µM [falling, partial curve, poor fit]
CSc1ccc(CNC(=O)C2CCN(c3nnc(-n4cccc4CNc4ccc(C)cc4)s3)CC2)cc1 | inconclusive: 29.1 µM [falling, single point]
COc1ccccc1C(=O)Oc1ccccc1C(=O)Nc1ccccc1 | inactive
N#Cc1c(-n2ncnc2-c2ccc(Br)cc2)sc2c1CCCCC2 | inconclusive: 1.64 µM [activator, full curve]

SMILES | Potency
CCCn1c2c(c(O)c(C(=O)Nc3ccc(OC)cc3)c1=O)CCCC2 | inconclusive: 23.1 µM [falling, single point]
COCCNC(=S)N1CCN(c2nc(-c3ccc(F)cc3)cs2)CC1 | inactive
COc1ccc(OC)c(NC(=O)CCc2c(C)nn(-c3ccc(N4CCCC4)nn3)c2C)c1 | inconclusive: 6.51 µM [falling, single point]
O=C(COc1cccnc1[N+](=O)[O-])N1CCC(Cc2ccccc2)CC1 | active: 14.6 µM
Cc1ccccc1C1=NC(C(F)(F)F)(C(F)(F)F)c2c(n(-c3ccc(F)cc3)c(=O)[nH]c2=O)N1 | inconclusive: 7.31 µM [falling, partial curve, poor fit]
CCCc1c(C(=O)N/N=C/c2c(OC)ccc3ccccc23)nnn1-c1nonc1N | inconclusive: 29.1 µM [falling, single point]
Cc1cccc2c(=O)c(-c3ccc4c(c3)OCO4)c(NC(=O)c3ccco3)oc12 | inconclusive: 13 µM [activator, partial curve, poor fit]
O=C(Nc1nc2ccc(Cl)cc2s1)c1ccc(Br)o1 | inconclusive: 2.91 µM [activator, full curve]
CC(C)(C)C1CCc2c(sc(NC(=O)C3CCCO3)c2C(N)=O)C1 (configuration not stated) | inconclusive: 32.6 µM [falling, partial curve, poor fit]
CC(=O)Nc1cccc(C(=O)NCCc2ccco2)c1 | inconclusive: 1.16 µM [activator, full curve]
CC(C)c1ccc(NC(=O)c2ccc3c(c2)CCCN3S(C)(=O)=O)cc1 | inconclusive: 9.2 µM [falling, partial curve]
CC(=O)NCCc1nc(-c2ccc(Cl)cc2)no1 | inconclusive: 16.4 µM [activator, partial curve, poor fit]
COc1ccc(Br)cc1CN(C)C(=O)c1ccncc1 | inactive
CC(C)CNC(=S)N1CCC(C(=O)c2ccc(F)cc2)CC1 | inconclusive: 14.6 µM [falling, single point]
Cc1cc(C(F)(F)F)nc(SCC(=O)Nc2ccccc2)n1 | inconclusive: 1.16 µM [falling, partial curve, poor fit]
Cc1ccc(NC(=O)c2ccc3c(c2)C(=O)N(c2cc(C)ccc2C)C3=O)nc1 | inconclusive: 16.4 µM [activator, partial curve, poor fit]
CC1CCC(C(C)C)C(OCC(O)CNC(C)(C)C)C1 (configuration not stated) | inactive
C[n+]1ccccc1/C=C/c1c(F)cccc1F | active: 2.59 µM
COc1cccc(CN(C(=O)c2oc3ccc(Br)cc3c2C)C2CCS(=O)(=O)C2)c1 (configuration not stated) | inconclusive: 25.9 µM [falling, single point]
Cc1cc([N+](=O)[O-])nn1Cc1noc(C(=O)NCCCn2ccnc2)n1 | inconclusive: 6.51 µM [activator, single point]
CCN1CCc2nc(NC(=O)c3ccc(S(=O)(=O)N(C)C)cc3)sc2C1 | inconclusive: 20.6 µM [activator, partial curve, poor fit]
COc1ccc(-c2ocnc2C(=O)NCc2nn(-c3ccccc3)nc2C)cc1 | active: 2.91 µM
CCn1c(SCC(=O)NC2CC2)nnc1-c1ccc(C)cc1 | inactive

SMILES | Potency
Cc1nc2ccn(Cc3ccccc3)c(=O)c2cc1C(=O)Nc1ccc(F)cc1Cl | inactive
O=[N+]([O-])c1cc(Cl)ccc1-c1nc(-c2ccncc2)no1 | inconclusive: 8.2 µM [activator, partial curve]
Cc1coc2cc3oc(=O)c(CCC(=O)N4CCCCC4)c(C)c3cc12 | inconclusive: 3.66 µM [activator, full curve]
Cn1c2ccc(F)cc2c2nnc(SCCN3CCOCC3)nc21 | inactive
c1coc(CNc2nc3nonc3nc2NCc2ccco2)c1 | active: 7.31 µM
COc1ccc(OC)c(/C=C/c2c([N+](=O)[O-])c(=O)n(C)c(=O)n2C)c1 | inactive
O=C(NCc1ccc2c(c1)OCO2)c1cc([N+](=O)[O-])ccc1N1CCOCC1 | inactive
Brc1ccc(-c2nnc(SCCC3OCCCO3)o2)cc1 | inconclusive: 32.6 µM [falling, partial curve, poor fit]
COc1ccc(CCN(C)C(=O)COc2ccc(N(C)S(=O)(=O)c3ccc(C)cc3)cc2)cc1OC | inconclusive: 20.6 µM [falling, partial curve, poor fit]
COc1ccc2nc(SCC(=O)NC3CC3)c(C#N)cc2c1 | inconclusive: 16.4 µM [falling, single point]
CCC(=O)N1CCN(c2ccccc2NC(=O)COc2ccc(C(C)C)cc2)CC1 | inactive
COCCCC1CCN(C(=O)C2CCC(=O)N(CCc3ccccc3)C2)CC1 (configuration not stated) | inconclusive: 29.1 µM [activator, single point]
O=C(C=C1CCN(c2ncc(C(F)(F)F)cc2Cl)CC1)NNC(=O)Nc1ccccc1 | inconclusive: 20.6 µM [falling, single point]
CC(=O)Nc1ccc(S(=O)(=O)N2CCCC(C(=O)N3CCN(c4ccccc4)CC3)C2)cc1 (configuration not stated) | inconclusive: 20.6 µM [falling, single point]
COc1ccc(F)cc1C1=CC(=O)C[C@H](c2ccc3c(c2)OCO3)C1 | inactive
CCOc1ccc(NC(=O)Nc2cccc(C)n2)cc1 | inconclusive: 2.31 µM [activator, full curve] and inconclusive: 4.61 µM [activator, full curve]
Cc1ccc(-n2nc3c(N4CCC(C(=O)NCCc5ccccc5)CC4)nnc(C)c3c2C)cc1 | inactive
O=C(NNC(=O)c1cccnc1SCc1cccc([N+](=O)[O-])c1)c1ccccn1 | inconclusive: 18.4 µM [falling, partial curve, poor fit]
Nc1cc[n+](CC(=O)c2ccc3c(c2)OCCO3)cc1 | active: 2.06 µM
COc1ccc(C)cc1NC(=O)CN(C)S(=O)(=O)c1ccc2c(c1)CCCN2C(C)=O | inconclusive: 32.6 µM [falling, single point]
COc1ccc(Cc2[nH]n3c(=O)cc(C)nc3c2-c2ccccc2)cc1 | inconclusive: 25.9 µM [falling, single point]
